Experiment [1] has as its target T1, TBK1 as used in the immunoprecipitations of Figure S2A-C (construct not stated) (UniProt Q9UHD2).
T1 sequence: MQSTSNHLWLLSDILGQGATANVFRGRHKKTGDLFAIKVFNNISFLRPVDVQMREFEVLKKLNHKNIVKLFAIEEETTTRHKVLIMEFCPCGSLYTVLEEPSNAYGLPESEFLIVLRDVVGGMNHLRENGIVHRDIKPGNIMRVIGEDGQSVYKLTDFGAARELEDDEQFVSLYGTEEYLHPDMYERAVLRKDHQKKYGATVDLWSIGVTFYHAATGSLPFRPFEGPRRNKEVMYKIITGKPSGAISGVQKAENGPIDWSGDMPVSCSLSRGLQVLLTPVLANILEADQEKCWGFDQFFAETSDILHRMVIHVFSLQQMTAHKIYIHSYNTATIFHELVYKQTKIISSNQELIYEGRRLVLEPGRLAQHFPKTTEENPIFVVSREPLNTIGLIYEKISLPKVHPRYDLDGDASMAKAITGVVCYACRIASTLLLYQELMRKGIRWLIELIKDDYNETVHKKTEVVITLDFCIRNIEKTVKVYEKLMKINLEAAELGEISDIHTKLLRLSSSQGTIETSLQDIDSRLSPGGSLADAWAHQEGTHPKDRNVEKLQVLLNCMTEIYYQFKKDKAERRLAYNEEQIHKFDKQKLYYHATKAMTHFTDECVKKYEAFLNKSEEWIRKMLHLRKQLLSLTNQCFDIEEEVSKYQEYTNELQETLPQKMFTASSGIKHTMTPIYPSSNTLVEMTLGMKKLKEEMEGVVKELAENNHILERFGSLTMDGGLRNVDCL
Nature of the experiment: co-IP.

Protein sequences, listed by entry. Tags and fused reporters are not part of them. Lines headed by an entry give the natural chain unless they say otherwise; changes in a name come on top. Chains listed by the source or under a name are the forms on record and can include a tag or linker. Residues count along the entry.
UniProt O15379: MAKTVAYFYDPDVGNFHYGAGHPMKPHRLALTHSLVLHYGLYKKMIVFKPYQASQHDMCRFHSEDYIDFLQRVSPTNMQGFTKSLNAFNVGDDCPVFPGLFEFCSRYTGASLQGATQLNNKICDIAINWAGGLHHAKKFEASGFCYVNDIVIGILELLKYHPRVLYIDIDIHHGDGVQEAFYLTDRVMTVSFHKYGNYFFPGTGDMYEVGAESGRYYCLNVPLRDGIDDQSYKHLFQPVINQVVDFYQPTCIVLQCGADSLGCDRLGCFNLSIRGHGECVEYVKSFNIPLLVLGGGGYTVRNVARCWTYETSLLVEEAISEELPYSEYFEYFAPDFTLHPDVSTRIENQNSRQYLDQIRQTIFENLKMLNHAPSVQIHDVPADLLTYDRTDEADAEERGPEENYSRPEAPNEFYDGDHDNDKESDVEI
Flag-tagged HDAC3 (1-316 aa): residues 1-316 of O15379

Experiment [2] has as its target T2, Flag-tagged wild-type TBK1, Q9UHD2.
T2 chain: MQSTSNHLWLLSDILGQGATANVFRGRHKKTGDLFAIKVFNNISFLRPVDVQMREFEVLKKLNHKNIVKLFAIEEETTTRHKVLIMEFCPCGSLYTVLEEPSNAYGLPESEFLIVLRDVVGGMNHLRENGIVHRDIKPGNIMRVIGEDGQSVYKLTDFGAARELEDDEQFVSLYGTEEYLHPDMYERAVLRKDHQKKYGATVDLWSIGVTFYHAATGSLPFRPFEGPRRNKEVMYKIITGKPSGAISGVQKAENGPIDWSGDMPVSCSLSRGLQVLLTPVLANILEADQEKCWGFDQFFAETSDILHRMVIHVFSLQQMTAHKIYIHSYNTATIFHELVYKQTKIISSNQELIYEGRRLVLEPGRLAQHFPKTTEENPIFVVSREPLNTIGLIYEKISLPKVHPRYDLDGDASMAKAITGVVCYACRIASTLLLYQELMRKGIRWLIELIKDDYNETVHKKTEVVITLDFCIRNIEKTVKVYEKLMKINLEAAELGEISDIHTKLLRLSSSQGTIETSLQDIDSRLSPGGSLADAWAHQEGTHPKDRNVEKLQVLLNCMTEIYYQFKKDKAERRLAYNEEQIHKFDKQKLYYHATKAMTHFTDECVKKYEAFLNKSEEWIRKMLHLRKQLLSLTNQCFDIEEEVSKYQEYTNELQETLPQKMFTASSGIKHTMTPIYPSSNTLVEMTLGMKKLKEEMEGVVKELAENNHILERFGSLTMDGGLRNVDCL
Nature of the experiment: native gel or EMSA; HEK293T TBK1-knockout cells transfected 48 h with Flag-tagged TBK1 wild type or mutants; 8% native PAGE without SDS, then immunoblot; dimer or monomer form. To be noted: remark: other sources report otherwise.

A further experiment has as its target T3, Flag-tagged TBK1 K692Q (UniProt Q9UHD2).
T3 sequence: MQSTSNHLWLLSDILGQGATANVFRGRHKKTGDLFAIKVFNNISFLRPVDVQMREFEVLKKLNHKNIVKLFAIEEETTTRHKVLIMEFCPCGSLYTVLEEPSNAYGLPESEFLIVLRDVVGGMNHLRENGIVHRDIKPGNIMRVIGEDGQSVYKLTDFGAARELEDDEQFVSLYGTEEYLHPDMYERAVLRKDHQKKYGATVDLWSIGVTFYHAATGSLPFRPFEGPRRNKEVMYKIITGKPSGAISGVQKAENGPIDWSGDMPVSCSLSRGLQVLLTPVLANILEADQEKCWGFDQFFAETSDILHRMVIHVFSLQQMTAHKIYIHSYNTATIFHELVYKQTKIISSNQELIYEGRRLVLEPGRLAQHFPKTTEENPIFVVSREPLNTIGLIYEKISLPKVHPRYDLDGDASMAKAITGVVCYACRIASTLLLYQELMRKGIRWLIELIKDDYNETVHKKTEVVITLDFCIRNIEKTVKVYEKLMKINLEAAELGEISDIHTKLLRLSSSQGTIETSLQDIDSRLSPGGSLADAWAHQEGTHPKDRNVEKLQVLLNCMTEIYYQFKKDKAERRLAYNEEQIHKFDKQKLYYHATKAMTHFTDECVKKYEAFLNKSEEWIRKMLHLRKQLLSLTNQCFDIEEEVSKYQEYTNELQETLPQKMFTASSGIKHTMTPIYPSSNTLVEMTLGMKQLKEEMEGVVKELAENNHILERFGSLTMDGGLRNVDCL
The description is as above.

The next experiment deals with T4, Flag-tagged TBK1 K692R (UniProt Q9UHD2).
T4 sequence: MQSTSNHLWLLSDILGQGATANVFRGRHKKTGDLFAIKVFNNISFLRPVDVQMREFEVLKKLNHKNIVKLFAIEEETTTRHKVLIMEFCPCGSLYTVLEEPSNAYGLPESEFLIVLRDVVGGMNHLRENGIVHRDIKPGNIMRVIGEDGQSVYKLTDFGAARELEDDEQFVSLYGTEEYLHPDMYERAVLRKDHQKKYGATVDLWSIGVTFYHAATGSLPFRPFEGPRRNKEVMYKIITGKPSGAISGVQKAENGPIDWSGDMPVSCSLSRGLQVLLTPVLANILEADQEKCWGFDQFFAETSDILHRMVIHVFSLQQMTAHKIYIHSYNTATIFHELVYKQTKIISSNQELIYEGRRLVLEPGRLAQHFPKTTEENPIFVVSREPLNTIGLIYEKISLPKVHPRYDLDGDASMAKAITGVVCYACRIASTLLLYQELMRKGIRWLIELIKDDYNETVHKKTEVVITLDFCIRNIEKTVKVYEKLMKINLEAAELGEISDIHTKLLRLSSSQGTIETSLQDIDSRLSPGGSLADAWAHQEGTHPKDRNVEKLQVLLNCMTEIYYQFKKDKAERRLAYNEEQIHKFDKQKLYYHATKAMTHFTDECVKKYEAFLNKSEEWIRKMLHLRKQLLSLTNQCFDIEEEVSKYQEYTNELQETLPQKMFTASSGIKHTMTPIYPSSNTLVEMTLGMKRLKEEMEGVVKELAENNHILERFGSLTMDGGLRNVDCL
The experiment is described as above.

Experiment [3] addresses Flag-tagged wild-type HDAC3 (histone deacetylase 3) (UniProt O15379). Nature of the experiment: co-IP.
In experiment [4] the target is Flag-tagged HDAC3 (1-316 aa) (UniProt O15379). Nature of the experiment: co-IP.

No constants are given. Whether binding was seen depends on the method and setting. For part of these data: Binding seen in cells or lysates may run through a third protein. Some entries that bind do so weakly or less than the wild type. For part of these data: Where a sequence is shown, tags or fusion partners need not be part of it.

B1: TANK (protein, UniProt Q92844 1-425)
chain: MDKNIGEQLNKAYEAFRQACMDRDSAVKELQQKTENYEQRIREQQEQLSLQQTIIDKLKSQLLLVNSTQDNNYGCVPLLEDSETRKNNLTLDQPQDKVISGIAREKLPKVRRQEVSSPRKETSARSLGSPLLHERGNIEKTFWDLKEEFHKICMLAKAQKDHLSKLNIPDTATETQCSVPIQCTDKTDKQEALFKPQAKDDINRGAPSITSVTPRGLCRDEEDTSFESLSKFNVKFPPMDNDSTFLHSTPERPGILSPATSEAVCQEKFNMEFRDNPGNFVKTEETLFEIQGIDPIASAIQNLKTTDKTKPSNLVNTCIRTTLDRAACLPPGDHNALYVNSFPLLDPSDAPFPSLDSPGKAIRGPQQPIWKPFPNQDSDSVVLSGTDSELHIPRVCEFCQAVFPPSITSRGDFLRHLNSHFNGET
B1: in experiment [1], the binding entry was “binds”.

B2: Flag-tagged wild-type TBK1, Q9UHD2 1-729 (enzyme)
chain: MQSTSNHLWLLSDILGQGATANVFRGRHKKTGDLFAIKVFNNISFLRPVDVQMREFEVLKKLNHKNIVKLFAIEEETTTRHKVLIMEFCPCGSLYTVLEEPSNAYGLPESEFLIVLRDVVGGMNHLRENGIVHRDIKPGNIMRVIGEDGQSVYKLTDFGAARELEDDEQFVSLYGTEEYLHPDMYERAVLRKDHQKKYGATVDLWSIGVTFYHAATGSLPFRPFEGPRRNKEVMYKIITGKPSGAISGVQKAENGPIDWSGDMPVSCSLSRGLQVLLTPVLANILEADQEKCWGFDQFFAETSDILHRMVIHVFSLQQMTAHKIYIHSYNTATIFHELVYKQTKIISSNQELIYEGRRLVLEPGRLAQHFPKTTEENPIFVVSREPLNTIGLIYEKISLPKVHPRYDLDGDASMAKAITGVVCYACRIASTLLLYQELMRKGIRWLIELIKDDYNETVHKKTEVVITLDFCIRNIEKTVKVYEKLMKINLEAAELGEISDIHTKLLRLSSSQGTIETSLQDIDSRLSPGGSLADAWAHQEGTHPKDRNVEKLQVLLNCMTEIYYQFKKDKAERRLAYNEEQIHKFDKQKLYYHATKAMTHFTDECVKKYEAFLNKSEEWIRKMLHLRKQLLSLTNQCFDIEEEVSKYQEYTNELQETLPQKMFTASSGIKHTMTPIYPSSNTLVEMTLGMKKLKEEMEGVVKELAENNHILERFGSLTMDGGLRNVDCL
Regarding B2, the binding result in experiment [2] is on record as “binds”.

B3: Flag-tagged TBK1 K692Q (enzyme, UniProt Q9UHD2 1-729)
chain: MQSTSNHLWLLSDILGQGATANVFRGRHKKTGDLFAIKVFNNISFLRPVDVQMREFEVLKKLNHKNIVKLFAIEEETTTRHKVLIMEFCPCGSLYTVLEEPSNAYGLPESEFLIVLRDVVGGMNHLRENGIVHRDIKPGNIMRVIGEDGQSVYKLTDFGAARELEDDEQFVSLYGTEEYLHPDMYERAVLRKDHQKKYGATVDLWSIGVTFYHAATGSLPFRPFEGPRRNKEVMYKIITGKPSGAISGVQKAENGPIDWSGDMPVSCSLSRGLQVLLTPVLANILEADQEKCWGFDQFFAETSDILHRMVIHVFSLQQMTAHKIYIHSYNTATIFHELVYKQTKIISSNQELIYEGRRLVLEPGRLAQHFPKTTEENPIFVVSREPLNTIGLIYEKISLPKVHPRYDLDGDASMAKAITGVVCYACRIASTLLLYQELMRKGIRWLIELIKDDYNETVHKKTEVVITLDFCIRNIEKTVKVYEKLMKINLEAAELGEISDIHTKLLRLSSSQGTIETSLQDIDSRLSPGGSLADAWAHQEGTHPKDRNVEKLQVLLNCMTEIYYQFKKDKAERRLAYNEEQIHKFDKQKLYYHATKAMTHFTDECVKKYEAFLNKSEEWIRKMLHLRKQLLSLTNQCFDIEEEVSKYQEYTNELQETLPQKMFTASSGIKHTMTPIYPSSNTLVEMTLGMKQLKEEMEGVVKELAENNHILERFGSLTMDGGLRNVDCL
For B3, the binding result with Flag-tagged TBK1 K692Q was “binds”.

B4: Flag-tagged TBK1 K692R (enzyme, UniProt Q9UHD2 1-729)
chain: MQSTSNHLWLLSDILGQGATANVFRGRHKKTGDLFAIKVFNNISFLRPVDVQMREFEVLKKLNHKNIVKLFAIEEETTTRHKVLIMEFCPCGSLYTVLEEPSNAYGLPESEFLIVLRDVVGGMNHLRENGIVHRDIKPGNIMRVIGEDGQSVYKLTDFGAARELEDDEQFVSLYGTEEYLHPDMYERAVLRKDHQKKYGATVDLWSIGVTFYHAATGSLPFRPFEGPRRNKEVMYKIITGKPSGAISGVQKAENGPIDWSGDMPVSCSLSRGLQVLLTPVLANILEADQEKCWGFDQFFAETSDILHRMVIHVFSLQQMTAHKIYIHSYNTATIFHELVYKQTKIISSNQELIYEGRRLVLEPGRLAQHFPKTTEENPIFVVSREPLNTIGLIYEKISLPKVHPRYDLDGDASMAKAITGVVCYACRIASTLLLYQELMRKGIRWLIELIKDDYNETVHKKTEVVITLDFCIRNIEKTVKVYEKLMKINLEAAELGEISDIHTKLLRLSSSQGTIETSLQDIDSRLSPGGSLADAWAHQEGTHPKDRNVEKLQVLLNCMTEIYYQFKKDKAERRLAYNEEQIHKFDKQKLYYHATKAMTHFTDECVKKYEAFLNKSEEWIRKMLHLRKQLLSLTNQCFDIEEEVSKYQEYTNELQETLPQKMFTASSGIKHTMTPIYPSSNTLVEMTLGMKRLKEEMEGVVKELAENNHILERFGSLTMDGGLRNVDCL
For B4, the binding entry in the experiment with Flag-tagged TBK1 K692R is “binds”.

B5: HA-tagged TBK1 (TANK-binding kinase 1) (enzyme, UniProt Q9UHD2 1-729)
chain: MQSTSNHLWLLSDILGQGATANVFRGRHKKTGDLFAIKVFNNISFLRPVDVQMREFEVLKKLNHKNIVKLFAIEEETTTRHKVLIMEFCPCGSLYTVLEEPSNAYGLPESEFLIVLRDVVGGMNHLRENGIVHRDIKPGNIMRVIGEDGQSVYKLTDFGAARELEDDEQFVSLYGTEEYLHPDMYERAVLRKDHQKKYGATVDLWSIGVTFYHAATGSLPFRPFEGPRRNKEVMYKIITGKPSGAISGVQKAENGPIDWSGDMPVSCSLSRGLQVLLTPVLANILEADQEKCWGFDQFFAETSDILHRMVIHVFSLQQMTAHKIYIHSYNTATIFHELVYKQTKIISSNQELIYEGRRLVLEPGRLAQHFPKTTEENPIFVVSREPLNTIGLIYEKISLPKVHPRYDLDGDASMAKAITGVVCYACRIASTLLLYQELMRKGIRWLIELIKDDYNETVHKKTEVVITLDFCIRNIEKTVKVYEKLMKINLEAAELGEISDIHTKLLRLSSSQGTIETSLQDIDSRLSPGGSLADAWAHQEGTHPKDRNVEKLQVLLNCMTEIYYQFKKDKAERRLAYNEEQIHKFDKQKLYYHATKAMTHFTDECVKKYEAFLNKSEEWIRKMLHLRKQLLSLTNQCFDIEEEVSKYQEYTNELQETLPQKMFTASSGIKHTMTPIYPSSNTLVEMTLGMKKLKEEMEGVVKELAENNHILERFGSLTMDGGLRNVDCL
Turning to B5, the binding result in experiment [3] and in experiment [4] was “binds” throughout.

The record behind these values is publication PMC8018997.
